Measurements published in publication PMC10992996.
No constants are given. Whether binding was seen depends on the method and setting. In cells and extracts the contact can be indirect. A yes stands for co-enrichment or nearness to the bait. Other partners may have been found. One block for each binder: values may come before it.

Amino acid sequences for entries named in this document (tags omitted). Residues count along the entry.
UniProt Q5IJ48, residues 29-1285: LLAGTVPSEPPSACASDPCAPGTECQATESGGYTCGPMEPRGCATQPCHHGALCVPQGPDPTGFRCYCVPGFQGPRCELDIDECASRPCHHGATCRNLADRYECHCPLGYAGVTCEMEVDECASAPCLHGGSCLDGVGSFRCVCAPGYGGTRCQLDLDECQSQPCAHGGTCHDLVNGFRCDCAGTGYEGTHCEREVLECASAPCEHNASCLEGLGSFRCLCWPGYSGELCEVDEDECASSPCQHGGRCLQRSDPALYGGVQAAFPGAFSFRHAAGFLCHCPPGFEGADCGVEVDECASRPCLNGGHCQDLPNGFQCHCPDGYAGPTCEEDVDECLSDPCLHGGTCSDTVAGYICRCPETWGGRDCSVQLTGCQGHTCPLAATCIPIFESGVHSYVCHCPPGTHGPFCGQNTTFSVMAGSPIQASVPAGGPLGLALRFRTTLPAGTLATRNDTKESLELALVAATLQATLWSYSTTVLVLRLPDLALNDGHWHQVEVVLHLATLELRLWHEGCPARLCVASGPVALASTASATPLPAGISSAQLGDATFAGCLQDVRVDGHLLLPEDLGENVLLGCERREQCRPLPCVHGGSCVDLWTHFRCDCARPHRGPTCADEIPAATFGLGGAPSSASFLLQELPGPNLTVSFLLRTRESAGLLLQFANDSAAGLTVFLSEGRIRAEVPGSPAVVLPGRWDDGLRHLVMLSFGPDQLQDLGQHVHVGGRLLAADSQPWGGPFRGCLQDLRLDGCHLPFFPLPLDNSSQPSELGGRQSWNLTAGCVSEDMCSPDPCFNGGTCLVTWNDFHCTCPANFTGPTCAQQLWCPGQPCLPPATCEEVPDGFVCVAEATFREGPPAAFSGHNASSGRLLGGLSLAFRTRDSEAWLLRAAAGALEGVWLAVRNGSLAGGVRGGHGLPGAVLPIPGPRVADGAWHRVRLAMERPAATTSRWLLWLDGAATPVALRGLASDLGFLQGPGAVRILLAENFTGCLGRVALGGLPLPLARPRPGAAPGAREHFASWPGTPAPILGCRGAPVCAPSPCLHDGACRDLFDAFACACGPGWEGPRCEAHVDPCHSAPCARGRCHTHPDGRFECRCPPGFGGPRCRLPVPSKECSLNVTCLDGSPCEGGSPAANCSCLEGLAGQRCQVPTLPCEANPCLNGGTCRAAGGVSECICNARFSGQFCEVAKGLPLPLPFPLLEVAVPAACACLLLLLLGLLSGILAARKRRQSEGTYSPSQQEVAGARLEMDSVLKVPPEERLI

Experiments:
[1] = biological target: Human canonical CRB2 (Crumbs homolog 2) (human) (UniProt Q5IJ48); test: affinity purification with mass spectrometry; CRB2-FLAG pull-down with LC-MS/MS as a2 and a3; the sentence does not tell whether the sample was with or without porcine retina lysate
[2] = biological target: Human canonical CRB2 (Crumbs homolog 2) (human) (UniProt Q5IJ48); test: affinity purification with mass spectrometry; CRB2-FLAG (GFP-FLAG as control) from HEK293T lysate on FLAG beads, washed with 0.01% SDS in TBS, incubated with lysis buffer without porcine retina lysate, FLAG peptide elution, LC-MS/MS, N = 6; interactors derive from HEK293T cells

binding [1]: binds
B1: ARL8A (protein, UniProt Q96BM9 1-186)
chain: MIALFNKLLDWFKALFWKEEMELTLVGLQYSGKTTFVNVIASGQFNEDMIPTVGFNMRKITKGNVTIKLWDIGGQPRFRSMWERYCRGVSAIVYMVDAADQEKIEASKNELHNLLDKPQLQGIPVLVLGNKRDLPGALDEKELIEKMNLSAIQDREICCYSISCKEKDNIDITLQWLIQHSKSRRS

binding [2]: binds
B2: LIN7C (protein, UniProt Q9NUP9 1-197)
chain: MAALGEPVRLERDICRAIELLEKLQRSGEVPPQKLQALQRVLQSEFCNAVREVYEHVYETVDISSSPEVRANATAKATVAAFAASEGHSHPRVVELPKTEEGLGFNIMGGKEQNSPIYISRIIPGGIADRHGGLKRGDQLLSVNGVSVEGEHHEKAVELLKAAQGKVKLVVRYTPKVLEEMESRFEKMRSAKRRQQT
